The values that follow come from patent publication US20020146750A1.

Numbering of substitutions follows the chain as printed. Results are given in words; binding and its absence hold for the method and conditions named. Some results given as binding are weak or reduced against the parent protein; the word gives no strength.

The target in assay [1] is MUC1 60-mer peptide NH2-(…)3-COOH. As to the kind of experiment: ELISA, soluble Fab, biotinylated MUC1 60-mer; relative signal. On the technique in general: An ELISA detects its analyte on a solid surface through an enzyme-linked reagent.
Assay [2] has the same target. As to the kind of experiment: ELISA, Fab, biotinylated MUC1 60-mer.

B1: 10A8 (Fab, V domains shown)
VH: QVQLVQSGGGLVQPGGSLRLSCAASGFTFRSNAMGWVRQAPGKGLEWVSGISGSGGSTYYADSVKGRFTISRDNSKNTLYLQMNSLRAEDTAVYYCARHTGGGVWDPIGYWGQGTLVTVSS
VL: EIVLTQSPLSLPVTPGEPASISCRSSQSLLHSNGYTYLDWYLQKPGQSPQLLIYSGSHRASGVPDRFSGSVSGTDFTLRISRVEAEDVGVYYCMQGLQSPFTFGPGTKVDIKR
On to B1, for which the binding entry in assay [1] is reported as “binds”.

B2: clone 10G9 (HSPOT library) (Fab, V domains shown)
VH: B1 VH with S31R, R98K, G109D
VL: B1 VL
Turning to B2, the binding result in assay [2] is reported as “binds”.

B3: clone 7G8 (HSPOT library) (Fab, V domains shown)
VH: B1 VH with S31N, R98K, G109D
VL: B1 VL
Consider B3, for which, in assay [2], the binding entry was “binds”.
